Consider 8 molecules from PMC3524939.

Protein sequences, listed by entry. Tags and fused reporters are not part of them.
UniProt Q9CQJ4: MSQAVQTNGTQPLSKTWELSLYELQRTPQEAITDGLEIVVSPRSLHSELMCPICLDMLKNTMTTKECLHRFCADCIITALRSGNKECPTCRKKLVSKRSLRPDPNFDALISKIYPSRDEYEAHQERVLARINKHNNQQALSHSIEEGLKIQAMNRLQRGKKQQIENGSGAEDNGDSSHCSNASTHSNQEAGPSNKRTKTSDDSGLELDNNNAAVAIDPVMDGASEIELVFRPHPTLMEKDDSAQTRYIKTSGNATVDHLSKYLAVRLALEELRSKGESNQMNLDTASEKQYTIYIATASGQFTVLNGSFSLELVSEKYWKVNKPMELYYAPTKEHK
UniProt A2AQH4: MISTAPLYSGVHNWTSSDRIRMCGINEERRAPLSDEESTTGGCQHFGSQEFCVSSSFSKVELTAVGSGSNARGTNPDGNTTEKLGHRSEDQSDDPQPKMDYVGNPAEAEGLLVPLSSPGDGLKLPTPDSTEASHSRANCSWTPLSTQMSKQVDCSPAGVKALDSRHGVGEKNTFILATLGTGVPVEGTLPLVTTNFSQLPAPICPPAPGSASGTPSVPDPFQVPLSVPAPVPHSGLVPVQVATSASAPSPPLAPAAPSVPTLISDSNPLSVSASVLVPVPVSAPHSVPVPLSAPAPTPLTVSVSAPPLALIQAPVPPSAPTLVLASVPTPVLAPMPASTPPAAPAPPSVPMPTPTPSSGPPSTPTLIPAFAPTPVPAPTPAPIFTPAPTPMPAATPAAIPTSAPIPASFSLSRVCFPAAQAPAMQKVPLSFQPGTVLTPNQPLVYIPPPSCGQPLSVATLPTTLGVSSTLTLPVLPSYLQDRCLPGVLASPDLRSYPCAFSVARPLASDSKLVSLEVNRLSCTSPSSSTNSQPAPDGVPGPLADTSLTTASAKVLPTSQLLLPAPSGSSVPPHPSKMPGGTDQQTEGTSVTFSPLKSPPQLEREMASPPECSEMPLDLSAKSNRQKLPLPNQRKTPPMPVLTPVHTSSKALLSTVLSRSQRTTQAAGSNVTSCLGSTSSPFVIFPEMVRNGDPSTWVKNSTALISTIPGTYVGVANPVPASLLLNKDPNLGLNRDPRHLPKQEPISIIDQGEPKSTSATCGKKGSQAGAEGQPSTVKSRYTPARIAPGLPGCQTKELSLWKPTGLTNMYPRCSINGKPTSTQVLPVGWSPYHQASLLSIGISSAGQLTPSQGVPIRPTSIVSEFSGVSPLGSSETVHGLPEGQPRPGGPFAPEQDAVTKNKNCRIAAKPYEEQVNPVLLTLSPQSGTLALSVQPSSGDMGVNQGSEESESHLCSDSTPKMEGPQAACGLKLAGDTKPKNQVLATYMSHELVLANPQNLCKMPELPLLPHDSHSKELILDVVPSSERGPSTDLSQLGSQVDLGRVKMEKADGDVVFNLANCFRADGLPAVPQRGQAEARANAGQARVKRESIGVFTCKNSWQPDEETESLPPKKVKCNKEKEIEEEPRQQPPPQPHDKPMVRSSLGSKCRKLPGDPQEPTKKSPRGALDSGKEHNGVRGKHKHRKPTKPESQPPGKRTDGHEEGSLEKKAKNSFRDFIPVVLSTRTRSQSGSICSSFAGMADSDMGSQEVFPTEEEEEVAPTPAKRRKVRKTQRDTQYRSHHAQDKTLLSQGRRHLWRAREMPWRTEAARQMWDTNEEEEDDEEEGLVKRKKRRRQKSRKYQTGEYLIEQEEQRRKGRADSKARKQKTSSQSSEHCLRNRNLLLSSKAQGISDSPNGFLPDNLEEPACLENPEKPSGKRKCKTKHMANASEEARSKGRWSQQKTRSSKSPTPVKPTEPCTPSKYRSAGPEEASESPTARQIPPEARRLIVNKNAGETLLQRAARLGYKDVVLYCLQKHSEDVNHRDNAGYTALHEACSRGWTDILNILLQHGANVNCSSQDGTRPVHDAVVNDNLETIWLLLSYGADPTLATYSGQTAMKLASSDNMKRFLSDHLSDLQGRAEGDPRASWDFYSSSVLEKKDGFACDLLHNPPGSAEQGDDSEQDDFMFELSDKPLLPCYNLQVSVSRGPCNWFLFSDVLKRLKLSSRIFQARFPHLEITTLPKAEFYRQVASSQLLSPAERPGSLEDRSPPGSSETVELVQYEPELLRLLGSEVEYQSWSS
UniProt O35730: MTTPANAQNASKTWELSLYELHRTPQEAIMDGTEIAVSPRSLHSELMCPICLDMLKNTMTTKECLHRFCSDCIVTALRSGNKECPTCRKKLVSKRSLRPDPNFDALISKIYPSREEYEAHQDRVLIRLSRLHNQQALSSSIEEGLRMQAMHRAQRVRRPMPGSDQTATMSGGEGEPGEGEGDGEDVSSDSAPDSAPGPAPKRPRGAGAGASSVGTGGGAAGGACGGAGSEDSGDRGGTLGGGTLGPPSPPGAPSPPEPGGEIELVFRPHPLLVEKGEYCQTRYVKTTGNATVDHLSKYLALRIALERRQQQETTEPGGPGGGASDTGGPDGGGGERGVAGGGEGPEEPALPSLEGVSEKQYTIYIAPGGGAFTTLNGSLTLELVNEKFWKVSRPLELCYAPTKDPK
UniProt Q8CGN4: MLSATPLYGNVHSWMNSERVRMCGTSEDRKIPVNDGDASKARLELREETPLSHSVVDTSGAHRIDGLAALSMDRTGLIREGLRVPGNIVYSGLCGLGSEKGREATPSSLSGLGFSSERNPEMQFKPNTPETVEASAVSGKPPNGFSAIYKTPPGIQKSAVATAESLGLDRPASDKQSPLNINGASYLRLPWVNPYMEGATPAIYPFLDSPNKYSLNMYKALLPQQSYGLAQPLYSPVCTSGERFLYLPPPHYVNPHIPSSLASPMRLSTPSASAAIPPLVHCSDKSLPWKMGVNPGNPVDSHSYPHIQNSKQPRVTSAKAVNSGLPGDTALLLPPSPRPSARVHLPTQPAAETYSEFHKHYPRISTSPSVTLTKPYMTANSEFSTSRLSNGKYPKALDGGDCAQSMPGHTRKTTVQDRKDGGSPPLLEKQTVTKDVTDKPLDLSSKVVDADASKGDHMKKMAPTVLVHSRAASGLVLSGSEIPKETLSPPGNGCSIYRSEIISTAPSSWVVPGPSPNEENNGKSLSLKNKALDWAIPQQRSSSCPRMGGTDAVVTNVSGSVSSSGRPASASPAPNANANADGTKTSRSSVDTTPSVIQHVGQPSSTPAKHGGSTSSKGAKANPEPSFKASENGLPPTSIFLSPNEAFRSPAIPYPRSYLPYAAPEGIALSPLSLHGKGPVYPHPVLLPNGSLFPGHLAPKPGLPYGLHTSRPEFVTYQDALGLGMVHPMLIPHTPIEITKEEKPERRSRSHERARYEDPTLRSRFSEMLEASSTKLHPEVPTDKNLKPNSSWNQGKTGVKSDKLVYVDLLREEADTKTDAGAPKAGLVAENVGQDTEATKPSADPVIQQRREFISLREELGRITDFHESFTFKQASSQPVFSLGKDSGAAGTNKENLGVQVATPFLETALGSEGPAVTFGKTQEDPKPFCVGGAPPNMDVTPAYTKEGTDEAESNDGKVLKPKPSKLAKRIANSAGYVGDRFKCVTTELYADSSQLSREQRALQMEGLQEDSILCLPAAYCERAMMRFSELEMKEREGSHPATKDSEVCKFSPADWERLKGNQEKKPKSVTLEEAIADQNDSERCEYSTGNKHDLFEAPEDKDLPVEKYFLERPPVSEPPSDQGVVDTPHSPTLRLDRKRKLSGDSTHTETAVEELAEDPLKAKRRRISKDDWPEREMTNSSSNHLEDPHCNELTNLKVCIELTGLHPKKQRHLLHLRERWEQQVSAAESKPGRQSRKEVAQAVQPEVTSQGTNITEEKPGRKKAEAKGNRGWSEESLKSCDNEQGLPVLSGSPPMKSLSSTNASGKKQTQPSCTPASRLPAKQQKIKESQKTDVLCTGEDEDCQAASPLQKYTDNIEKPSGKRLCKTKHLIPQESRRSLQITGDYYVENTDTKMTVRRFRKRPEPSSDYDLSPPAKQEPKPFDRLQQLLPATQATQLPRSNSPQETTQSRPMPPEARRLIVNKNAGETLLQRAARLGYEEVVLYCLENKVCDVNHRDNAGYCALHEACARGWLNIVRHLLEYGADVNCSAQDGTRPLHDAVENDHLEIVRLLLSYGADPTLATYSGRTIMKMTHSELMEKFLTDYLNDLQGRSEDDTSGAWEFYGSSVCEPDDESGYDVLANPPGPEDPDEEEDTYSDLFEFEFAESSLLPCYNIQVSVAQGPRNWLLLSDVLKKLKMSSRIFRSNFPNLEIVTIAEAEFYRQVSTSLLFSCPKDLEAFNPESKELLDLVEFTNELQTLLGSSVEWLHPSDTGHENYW

For assay [1], the target named is Flag-2XStrepII tagged PCGF1 (human) (UniProt Q9BSM1). The assay can be described thus: affinity purification with mass spectrometry; reciprocal purifications: Flag-2XStrepII tagged RING1B, YAF2, RYBP or PCGF1 captured on StrepTactin resin from mouse ESC nuclear extract, same setup as for KDM2B; LC-MS/MS.
The target in assay [2] is T1, Flag-2XStrepII-tagged KDM2B (human) (UniProt Q8NHM5).
T1 sequence: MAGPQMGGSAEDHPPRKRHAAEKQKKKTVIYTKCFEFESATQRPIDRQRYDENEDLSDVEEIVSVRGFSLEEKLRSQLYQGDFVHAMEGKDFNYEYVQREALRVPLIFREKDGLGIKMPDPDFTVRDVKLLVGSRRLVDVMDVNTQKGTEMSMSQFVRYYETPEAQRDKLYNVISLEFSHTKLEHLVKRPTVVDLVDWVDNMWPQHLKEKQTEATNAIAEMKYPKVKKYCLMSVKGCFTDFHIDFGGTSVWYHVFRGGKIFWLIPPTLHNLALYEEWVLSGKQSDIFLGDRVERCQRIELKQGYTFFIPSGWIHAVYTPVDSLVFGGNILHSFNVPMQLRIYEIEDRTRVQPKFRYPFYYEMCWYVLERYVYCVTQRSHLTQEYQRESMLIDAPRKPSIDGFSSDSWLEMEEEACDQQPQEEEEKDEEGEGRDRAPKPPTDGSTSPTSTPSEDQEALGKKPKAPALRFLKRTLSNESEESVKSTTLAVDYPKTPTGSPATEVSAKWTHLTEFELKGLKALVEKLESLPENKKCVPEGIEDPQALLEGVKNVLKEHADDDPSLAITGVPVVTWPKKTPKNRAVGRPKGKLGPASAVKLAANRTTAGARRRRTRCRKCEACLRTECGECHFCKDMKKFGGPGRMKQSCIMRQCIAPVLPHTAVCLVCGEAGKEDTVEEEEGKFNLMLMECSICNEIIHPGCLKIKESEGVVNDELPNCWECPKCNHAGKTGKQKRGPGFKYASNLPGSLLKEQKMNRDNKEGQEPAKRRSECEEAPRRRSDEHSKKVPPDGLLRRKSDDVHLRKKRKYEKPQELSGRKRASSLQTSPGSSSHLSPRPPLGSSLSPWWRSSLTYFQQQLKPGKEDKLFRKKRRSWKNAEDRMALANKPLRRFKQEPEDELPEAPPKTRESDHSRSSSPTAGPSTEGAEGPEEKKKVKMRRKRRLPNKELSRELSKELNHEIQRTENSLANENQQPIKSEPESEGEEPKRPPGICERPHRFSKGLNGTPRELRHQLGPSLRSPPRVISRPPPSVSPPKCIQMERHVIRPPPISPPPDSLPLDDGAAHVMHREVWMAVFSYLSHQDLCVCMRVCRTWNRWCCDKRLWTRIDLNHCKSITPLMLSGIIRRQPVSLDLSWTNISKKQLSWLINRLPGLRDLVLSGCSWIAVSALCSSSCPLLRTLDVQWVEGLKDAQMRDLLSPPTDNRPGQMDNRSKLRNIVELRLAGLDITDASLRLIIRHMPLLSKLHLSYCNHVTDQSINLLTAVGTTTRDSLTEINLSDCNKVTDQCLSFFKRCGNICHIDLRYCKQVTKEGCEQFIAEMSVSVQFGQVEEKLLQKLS
As to the kind of experiment: affinity purification with mass spectrometry; Flag-2XStrepII-KDM2B captured on StrepTactin resin from mouse ESC nuclear extract (150 mM NaCl, 3 hr, 4°C), with and without benzonase; washes with 500 mM NaCl, 0.2% NP-40; eluted with desthiobiotin; LC-MS/MS; empty-vector line as control.

Assay [3] concerns the target Flag-2XStrepII tagged RING1B (mouse) (UniProt Q9CQJ4). As to the kind of experiment: affinity purification with mass spectrometry; reciprocal purifications: Flag-2XStrepII tagged RING1B, YAF2, RYBP or PCGF1 captured on StrepTactin resin from mouse ESC nuclear extract, same setup as for KDM2B; LC-MS/MS.
Assay [4] has as its target T2, Flag-2XStrepII tagged YAF2 (mouse) (UniProt Q99LW6).
T2 sequence: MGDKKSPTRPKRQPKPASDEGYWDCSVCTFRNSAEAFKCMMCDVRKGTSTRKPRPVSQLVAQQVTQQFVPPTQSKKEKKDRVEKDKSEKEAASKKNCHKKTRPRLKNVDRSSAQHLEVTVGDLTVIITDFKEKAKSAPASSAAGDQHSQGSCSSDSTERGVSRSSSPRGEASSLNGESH
Described as above.

Assay [5] deals with T3, Flag-2XStrepII tagged RYBP (mouse) (UniProt Q8CCI5).
T3 sequence: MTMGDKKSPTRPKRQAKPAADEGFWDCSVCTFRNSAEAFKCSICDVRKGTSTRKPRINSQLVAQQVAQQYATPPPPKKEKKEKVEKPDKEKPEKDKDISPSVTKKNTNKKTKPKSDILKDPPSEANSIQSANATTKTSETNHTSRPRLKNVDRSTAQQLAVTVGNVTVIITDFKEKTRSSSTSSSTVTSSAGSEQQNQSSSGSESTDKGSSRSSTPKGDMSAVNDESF
The description is as above.

No constants are given. Whether binding was seen depends on the method and setting. In cells and extracts the contact can be indirect. These calls come from enrichment with a bait or labelling near it, and not all partners need be listed. For part of these data: Where a sequence is shown, tags or fusion partners need not be part of it.

For the molecule BCORL1 (from UniProt A2AQH4 1-1781), the binding result in assay [1] and in assay [2] was “binds” throughout. Regarding RING1A (from UniProt O35730 1-406), the binding entry in assay [1] was “binds”. As for RING1B (from UniProt Q9CQJ4 1-336), in assay [2], the binding entry is “binds”. Take BCOR (from UniProt Q8CGN4 1-1759): the binding result in assay [1] and in assay [2] was “binds” in each case.

B1: YAF2 (protein, UniProt Q99LW6 1-179)
chain: MGDKKSPTRPKRQPKPASDEGYWDCSVCTFRNSAEAFKCMMCDVRKGTSTRKPRPVSQLVAQQVTQQFVPPTQSKKEKKDRVEKDKSEKEAASKKNCHKKTRPRLKNVDRSSAQHLEVTVGDLTVIITDFKEKAKSAPASSAAGDQHSQGSCSSDSTERGVSRSSSPRGEASSLNGESH
As to B1, the binding entry in assay [1] and in assay [2] was “binds” in each case.

B2: PCGF1 (protein, UniProt Q8R023 1-259)
chain: MASPQGGQIAIAMRLRNQLQSVYKMDPLRNEEEVRVKIKDLNEHIVCCLCAGYFVDATTITECLHTFCKSCIVKYLQTSKYCPMCNIKIHETQPLLNLKLDRVMQDIVYKLVPGLQDSEEKRIREFYQSRGLDRVSQPSGEEPALSNLGLPFSSFDHSKAHYYRYDEQLSLCLERLSSGKDKNKNVLQNKYVRCSVRAEVRHLRRVLCHRLMLNPQHVQLLFDNEVLPDHMTMKQLWLSRWFGKPSPLLLQYSVKEKRR
Take B2: in assay [2], the binding entry is reported as “binds”.

B3: endogenous KDM2B (protein, UniProt Q6P1G2 1-1309)
chain: MEAEKDSGRRLRAIDRQRYDENEDLSDVEEIVSVRGFSLEEKLRSQLYQGDFVHAMEGKDFNYEYVQREALRVPLVFRDKDGLGIKMPDPDFTVRDVKLLVGSRRLVDVMDVNTQKGTEMSMSQFVRYYETPEAQRDKLYNVISLEFSHTKLEHLVKRPTVVDLVDWVDNMWPQHLKEKQTEATNALAEMKYPKVKKYCLMSVKGCFTDFHIDFGGTSVWYHVFRGGKIFWLIPPTLHNLALYEEWVLSGKQSDIFLGDRVERCQRIELKQGYTFFIPSGWIHAVYTPVDSLVFGGNILHSFNVPMQLRIYEIEDRTRVQPKFRYPFYYEMCWYVLERYVYCVTQRSYLTQEYQRELMLIDAPRKTSVDGFSSDSWLDMEEESCEQQPQEEEEEEEDKEEEGDGADKTPKPPTDDPTSPTSTPPEDQDSTGKKPKAPAIRFLKRTLSNESEESVKSTSMPTDDPKTPTGSPATEVSTKWTHLTEFELKGLKALVEKLESLPENKKCVPEGIEDPQALLEGVKNVLKEHVDDDPTLAITGVPVVSWPKKTAKNRVVGRPKGKLGPASAVKLAANRTTAGARRRRTRCRKCEACLRTECGECHFCKDMKKFGGPGRMKQSCIMRQCIAPVLPHTAVCLVCGEAGKEDTVEEEEGKFNLMLMECSICNEIIHPGCLKIKESEGVVNDELPNCWECPKCNHAGKTGKQKRGPGFKYASNLPGSLLKEQKMNRDNKEGQEPAKRRSECEEAPRRRSDEHPKKVPADGILRRKSDDVHLRRKRKYEKPQELSGRKRASSLQTSPGSSSHLSPRPPLGSSLSPWWRSSLTYFQQQLKPGKEDKLFRKKRRSWKNAEDRLSLANKPLRRFKQEPEDDLPEAPPKTRESDQSRSSSPTAGPSTEGAEGPEEKKKVKMRRKRRLVNKELSKELSKELNHEIQKTESTLAHESQQPIKSEPESENDEPKRPLSHCERPHRFSKGLNGTPRELRHSLGPGLRSPPRVMSRPPPSASPPKCIQMERHVIRPPPISPPPDSLPLDDGAAHVMHREVWMAVFSYLSHRDLCVCMRVCRTWNRWCCDKRLWTRIDLNRCKSITPLMLSGIIRRQPVSLDLSWTNISKKQLSWLINRLPGLRDLVLSGCSWIAVSALCSSSCPLLRTLDVQWVEGLKDAQMRDLLSPPTDNRPGQMDNRSKLRNIVELRLAGLDITDVSLRLIIRHMPLLSKLQLSYCNHINDQSINLLTAVGTTTRDSLTEVNLSDCNKVTDLCLSFFKRCGNICHIDLRYCKQVTKEGCEQFIAEMSVSVQFGQVEEKLLQKLS
Consider B3, for which the binding result in assay [3], in assay [4], in assay [5] and in assay [1] was “binds” throughout.

B4: RYBP (protein, UniProt Q8CCI5 1-228)
chain: MTMGDKKSPTRPKRQAKPAADEGFWDCSVCTFRNSAEAFKCSICDVRKGTSTRKPRINSQLVAQQVAQQYATPPPPKKEKKEKVEKPDKEKPEKDKDISPSVTKKNTNKKTKPKSDILKDPPSEANSIQSANATTKTSETNHTSRPRLKNVDRSTAQQLAVTVGNVTVIITDFKEKTRSSSTSSSTVTSSAGSEQQNQSSSGSESTDKGSSRSSTPKGDMSAVNDESF
In the case of B4, the binding entry in assay [1] and in assay [2] was “binds” in each case.
